Assay results reported in patent US20250346871A1, “PRENYLTRANSFERASES AND METHODS OF MAKING AND USE THEREOF” (priority 2020, published 2025).
At least one compound was matched to its structure with a doubt left.

System: APT73 (SEQ ID NO: 4) variant APT73.13 (S205R, G282R, A283C, S284L; residues 285 onward removed from the C-terminus), SEQ ID NO: 36
Assay: Kinetic characterization of purified enzyme with OA and GPP as substrates
Type: biochemical
Settings: APT73.13, purified enzyme
Protocol: In order to compare the enzyme's activities more accurately, larger cultures of the best hits and controls from the first screen were grown and the enzymes were purified according to the following protocol. Glycerol stocks of each recombinant strain were used to inoculate 2 mL of LB with 50 μg/mL kanamycin. […]. The cultures were grown at 37° C. with 250 rpm shaking until an OD600 of approximately 0.8-1. At this point, the cultures were transferred to a shaker at room temperature for 30 min, after which they were induced with 0.25 mM IPTG. After 16 h at 150 rpm shaking, the cells were pelleted by centrifugation
Cell pellets were resuspended in 10 mL lysis buffer (B-PER with 5 mM MgCl2, 100 μg/mL lysozyme, and 2 μL/mL DNaseI (TURBO DNase ThermoFisher)). After incubation at room temperature for 10 min, the cell debris were removed by centrifugation at 4750 rpm for 10 min at 4° C. Lysates were loaded in pre-equilibrated cobalt spin columns (ThermoFisher, HisPur Cobalt spin column, 1 mL) and tagged proteins were purified according to manufacturer's protocol. The eluted proteins were exchanged into the final buffer (TrisHCl 25 mM, 5 mM MgCl2, 150 mM NaCl 10% v/v glycerol) using Amicon Ultra 15 centrifugal filters (10 kDa MWCO). Proteins can be stored at −20° C. for at least a week. […]

With CC(C)=CCC/C(C)=C/COP(=O)(O)OP(=O)(O)O [GPP, geranyl pyrophosphate] the Km was 13 ± 4.25 µM.
